Binding data for one substance are collected here from PMC8591228.

Protein sequences, listed by entry. Tags and fused reporters are not part of them.
UniProt O75643: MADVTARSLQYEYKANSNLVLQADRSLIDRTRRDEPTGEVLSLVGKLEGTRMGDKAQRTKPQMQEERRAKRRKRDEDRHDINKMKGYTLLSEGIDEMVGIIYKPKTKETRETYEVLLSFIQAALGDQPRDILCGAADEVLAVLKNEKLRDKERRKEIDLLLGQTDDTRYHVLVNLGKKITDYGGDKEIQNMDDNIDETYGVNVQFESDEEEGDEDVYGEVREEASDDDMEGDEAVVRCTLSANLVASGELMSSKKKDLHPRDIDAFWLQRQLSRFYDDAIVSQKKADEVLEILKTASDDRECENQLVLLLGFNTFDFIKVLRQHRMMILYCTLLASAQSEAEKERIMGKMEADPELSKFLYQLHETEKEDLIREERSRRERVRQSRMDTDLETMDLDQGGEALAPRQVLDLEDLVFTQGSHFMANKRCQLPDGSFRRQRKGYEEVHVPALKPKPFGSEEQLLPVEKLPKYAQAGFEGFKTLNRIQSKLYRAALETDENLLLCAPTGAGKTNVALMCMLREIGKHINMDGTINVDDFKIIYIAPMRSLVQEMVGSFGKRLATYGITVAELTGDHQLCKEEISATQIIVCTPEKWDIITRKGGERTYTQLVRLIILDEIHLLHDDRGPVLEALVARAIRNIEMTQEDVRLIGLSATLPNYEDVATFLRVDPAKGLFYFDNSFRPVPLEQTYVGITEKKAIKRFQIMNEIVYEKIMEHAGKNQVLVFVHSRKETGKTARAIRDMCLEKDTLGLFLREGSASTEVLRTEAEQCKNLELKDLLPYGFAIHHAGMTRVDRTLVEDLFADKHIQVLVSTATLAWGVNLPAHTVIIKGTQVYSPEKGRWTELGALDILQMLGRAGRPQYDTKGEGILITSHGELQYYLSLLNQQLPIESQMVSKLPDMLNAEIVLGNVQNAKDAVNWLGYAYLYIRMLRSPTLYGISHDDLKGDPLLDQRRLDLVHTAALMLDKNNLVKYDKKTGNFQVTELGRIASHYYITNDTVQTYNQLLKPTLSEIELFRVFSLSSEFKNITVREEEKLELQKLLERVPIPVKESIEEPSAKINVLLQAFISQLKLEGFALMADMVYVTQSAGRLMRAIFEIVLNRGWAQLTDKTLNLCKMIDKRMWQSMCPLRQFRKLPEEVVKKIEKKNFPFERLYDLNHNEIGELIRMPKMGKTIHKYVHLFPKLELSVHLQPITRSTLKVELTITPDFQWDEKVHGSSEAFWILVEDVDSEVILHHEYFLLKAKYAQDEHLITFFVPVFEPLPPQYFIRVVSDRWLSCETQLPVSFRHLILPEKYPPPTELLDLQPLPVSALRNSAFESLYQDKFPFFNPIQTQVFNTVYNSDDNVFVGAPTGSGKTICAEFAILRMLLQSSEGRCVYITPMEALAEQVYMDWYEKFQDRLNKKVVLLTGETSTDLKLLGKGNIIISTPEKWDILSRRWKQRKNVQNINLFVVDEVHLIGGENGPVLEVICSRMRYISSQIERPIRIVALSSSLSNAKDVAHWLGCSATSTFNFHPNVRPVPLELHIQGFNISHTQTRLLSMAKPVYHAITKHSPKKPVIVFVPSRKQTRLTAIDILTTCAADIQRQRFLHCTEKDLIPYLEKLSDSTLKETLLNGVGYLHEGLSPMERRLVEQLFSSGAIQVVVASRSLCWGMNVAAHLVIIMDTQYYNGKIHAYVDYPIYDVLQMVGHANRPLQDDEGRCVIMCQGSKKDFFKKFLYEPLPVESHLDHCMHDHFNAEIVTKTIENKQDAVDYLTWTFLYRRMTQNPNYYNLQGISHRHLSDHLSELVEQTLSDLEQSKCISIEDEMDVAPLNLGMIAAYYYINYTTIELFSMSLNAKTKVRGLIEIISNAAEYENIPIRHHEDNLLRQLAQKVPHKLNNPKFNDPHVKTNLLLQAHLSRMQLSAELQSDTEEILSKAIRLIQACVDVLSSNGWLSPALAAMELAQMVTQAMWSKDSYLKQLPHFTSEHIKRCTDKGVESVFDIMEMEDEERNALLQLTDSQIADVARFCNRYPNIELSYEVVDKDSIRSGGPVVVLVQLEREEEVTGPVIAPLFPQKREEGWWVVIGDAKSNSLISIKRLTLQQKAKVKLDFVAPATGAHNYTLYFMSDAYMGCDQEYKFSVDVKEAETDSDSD

These are yes or no findings as the source states them, for the method shown. In cells and extracts the contact can be indirect. Some binding calls cover weakened binding; strength is not graded here. For some assays here: Where a sequence is shown, tags or fusion partners need not be part of it.

In experiment [1] the target is T1, Methyltransferase like 7A (METTL7A), endogenous in DPSCs (human (endogenous in DPSCs)) (UniProt Q9H8H3).
T1 sequence: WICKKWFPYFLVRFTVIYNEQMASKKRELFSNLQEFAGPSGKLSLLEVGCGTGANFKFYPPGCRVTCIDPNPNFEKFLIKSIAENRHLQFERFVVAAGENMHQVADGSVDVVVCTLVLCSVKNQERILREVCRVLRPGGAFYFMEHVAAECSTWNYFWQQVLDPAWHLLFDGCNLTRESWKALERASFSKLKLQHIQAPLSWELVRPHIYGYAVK
The experiment is described as follows: co-IP; DPSC lysates (IP lysis buffer) incubated with a specific antibody for 4 h, then protein A/G Sepharose or HA tag beads overnight at 4°C, washed three times with PBS, western blot; DPSCs with Consh or METTL7Ash, Vector or HA-METTL7A.

Experiment [2] has as its target T2, HA-METTL7A (human) (UniProt Q9H8H3).
T2 sequence: T1 sequence
The experiment is described as above.

As to SNRNP200 (from UniProt O75643 1-2136), the binding result in experiment [1] and in experiment [2] was “binds” throughout.
